Laboratory results from PMC9056525.

Tests used:
[1] = biological target: T1, UBA (ubiquitin associated) region of OTUD3 (human) (UniProt Q5T2D3); assay: co-IP; exogenous proteins and fragments in transfected cells; HEPES lysis buffer (20 mM HEPES pH 7.2, 50 mM NaCl, 0.5% Triton X-100, 1 mM NaF, 1 mM dithiothreitol), indicated primary antibody and protein A/G agarose at 4 °C, four washes, immunoblot
T1 sequence: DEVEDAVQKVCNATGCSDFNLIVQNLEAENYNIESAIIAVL

[2] = biological target: T2, F box and leucine-rich repeat protein 5 (FBXL5) (UniProt Q9UKA1); assay: as above
T2 sequence: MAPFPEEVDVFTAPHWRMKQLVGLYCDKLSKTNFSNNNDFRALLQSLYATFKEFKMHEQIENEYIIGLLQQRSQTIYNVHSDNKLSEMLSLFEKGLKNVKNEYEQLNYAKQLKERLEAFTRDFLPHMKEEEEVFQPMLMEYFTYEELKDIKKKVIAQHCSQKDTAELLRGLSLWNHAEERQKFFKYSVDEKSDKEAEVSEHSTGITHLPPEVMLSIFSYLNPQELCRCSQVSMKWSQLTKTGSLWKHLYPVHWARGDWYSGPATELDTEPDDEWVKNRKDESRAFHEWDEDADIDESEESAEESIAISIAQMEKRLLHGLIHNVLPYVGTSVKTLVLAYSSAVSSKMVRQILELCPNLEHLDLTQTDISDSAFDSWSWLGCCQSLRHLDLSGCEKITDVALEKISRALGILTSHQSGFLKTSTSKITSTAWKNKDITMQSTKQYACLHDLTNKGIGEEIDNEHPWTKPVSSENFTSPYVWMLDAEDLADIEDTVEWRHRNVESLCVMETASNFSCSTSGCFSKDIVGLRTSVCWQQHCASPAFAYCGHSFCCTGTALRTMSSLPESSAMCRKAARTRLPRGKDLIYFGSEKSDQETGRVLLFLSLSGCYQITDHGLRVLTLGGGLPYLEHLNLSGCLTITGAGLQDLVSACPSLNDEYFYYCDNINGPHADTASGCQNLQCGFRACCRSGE

binding [1] | binding [2] | Substance
binds | – | D2 region of IRP2 (domain or fragment)
binds | binds | D3 region of IRP2 (domain or fragment)

No constants are given. Whether binding was seen depends on the method and setting. Binding seen in cells or lysates may run through a third protein. A result given as binding can be weak or reduced; the word gives no strength.
